Measured values reported in US12239729B2 (Soricimed Biopharma Inc., priority 2012, dated 2025).
Where a sequence shows no end group, the ends are not given.

Assay: peptide made by a vendor
Conditions: whole synthesis

For EGKLSSNDTEGGLCKEFLHPSKVDLPR, the “purity (crude or final not stated)” value was “˜77.7%”.
